Patent publication US9353061B2, “3,5,N-trihydroxy-alkanamide and derivatives: method for making same and use thereof” (Academia Sinica, priority 2012, dated 2016)

Assays:
[1] = tested on: A549 human lung cancer cells; test: Cell proliferation (MTT) assay, cancer cells; conditions: read-out: IC50 (μM) A549, 72 h
[2] = tested on: MEF normal mouse fibroblast cells; format: cell-based; conditions: 72 h, MTT assay
[3] = tested on: HS68 normal human fibroblast cells; format: cell-based; conditions: 72 h, MTT assay

SMILES: O=C(CCCCCCC(=O)Nc1ccccc1)NO [SAHA, suberoylanalide hydroxamic acid, reference compound]
- IC50 [1]: 4.5 ± 0.8 µM
- IC50 [2]: 4.4 ± 1.4 µM
- IC50 [3]: 4.6 ± 0.7 µM
